Experimental data: PubChem BioAssay AID652243 (Drosophila RNAi Screening Center, 2013)

- Screen: 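Fly regulators of androgen-dependent reporter output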 (primary screen)
- Cell system: Drosophila S2R+ cells
- Knock-down reagent: long dsRNA against Drosophila genes
- Duration: 72 h (48 h, then 24 h hormone)
- Conditions: synthetic androgen R1881 at 10 nM for 24 h
- Read-out: 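Firefly light from an androgen-responsive reporter and Renilla control light per well, raw and unnormalised, for each of two replicates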
- Reading the numbers: firefly reporter light: higher = more light from androgen-responsive reporter; Renilla control light: higher = more constitutive control signal (cell number, transfection)
- Hit rule: 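Across duplicate plates, a knock-down whose log firefly/Renilla ratio shifted a set fold down or up from the GFP/LacZ control mean was a hit; the downward cut appears as both 1.5 and 3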
- Meaning of the calls: active = hit: reporter lowered or raised; inactive = no hit
The deposit covers about 24,000 reagents; this is an unselected part of those with a known target gene and a result. In the full data, 246 (1%) were called active. 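Plates not normalised; calls are printed but the firefly/Renilla ratio behind them is not deposited; fold cut for lowering reported inconsistently.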 Raw values are not corrected between plates. Entries without a mark were called inactive. No sequences are given here. Not given: the amount of reagent.

glec [DRSC16958]
- firefly reporter light, replicate 1: 2.37e5
- firefly reporter light, replicate 2: 1.79e5
- Renilla control light, replicate 1: 2.95e6
- Renilla control light, replicate 2: 3.58e6

glec [DRSC25314]
- firefly reporter light, replicate 1: 5.16e5
- firefly reporter light, replicate 2: 5.03e5
- Renilla control light, replicate 1: 5.99e5
- Renilla control light, replicate 2: 5.66e5

kz [DRSC18786]
- firefly reporter light, replicate 1: 2.71e5
- firefly reporter light, replicate 2: 1.97e5
- Renilla control light, replicate 1: 3.95e6
- Renilla control light, replicate 2: 3.47e6

term [DRSC21730]
- firefly reporter light, replicate 1: 7.20e5
- firefly reporter light, replicate 2: 5.96e5
- Renilla control light, replicate 1: 1.78e6
- Renilla control light, replicate 2: 2.11e6

cl [DRSC02118]
- firefly reporter light, replicate 1: 7.03e5
- firefly reporter light, replicate 2: 5.52e5
- Renilla control light, replicate 1: 2.23e6
- Renilla control light, replicate 2: 1.77e6

CG33459 [DRSC05615]
- firefly reporter light, replicate 1: 1.12e5
- firefly reporter light, replicate 2: 1.86e5
- Renilla control light, replicate 1: 2.92e5
- Renilla control light, replicate 2: 3.23e5

CG8142 [DRSC20086]
- firefly reporter light, replicate 1: 1.39e5
- firefly reporter light, replicate 2: 1.64e5
- Renilla control light, replicate 1: 9.95e5
- Renilla control light, replicate 2: 1.06e6

CG8142 [DRSC26373]
- firefly reporter light, replicate 1: 3.58e5
- firefly reporter light, replicate 2: 4.42e5
- Renilla control light, replicate 1: 8.22e5
- Renilla control light, replicate 2: 7.56e5

Mer [DRSC20259]
- firefly reporter light, replicate 1: 73955
- firefly reporter light, replicate 2: 62117
- Renilla control light, replicate 1: 5.91e5
- Renilla control light, replicate 2: 5.74e5

DCX-EMAP [DRSC10012]
- firefly reporter light, replicate 1: 2.27e5
- firefly reporter light, replicate 2: 1.27e5
- Renilla control light, replicate 1: 1.82e6
- Renilla control light, replicate 2: 1.04e6

DCX-EMAP [DRSC10013]
- firefly reporter light, replicate 1: 1.02e5
- firefly reporter light, replicate 2: 1.10e5
- Renilla control light, replicate 1: 5.19e5
- Renilla control light, replicate 2: 4.00e5

DCX-EMAP [DRSC23492]
- firefly reporter light, replicate 1: 1.71e6
- firefly reporter light, replicate 2: 1.26e6
- Renilla control light, replicate 1: 1.20e6
- Renilla control light, replicate 2: 1.10e6

CG12985 [DRSC19505]
- firefly reporter light, replicate 1: 8.02e5
- firefly reporter light, replicate 2: 8.23e5
- Renilla control light, replicate 1: 3.48e6
- Renilla control light, replicate 2: 3.16e6

CG12985 [DRSC26985]
- firefly reporter light, replicate 1: 3.52e5
- firefly reporter light, replicate 2: 3.79e5
- Renilla control light, replicate 1: 9.25e5
- Renilla control light, replicate 2: 6.24e5

CG17928 [DRSC02644]
- firefly reporter light, replicate 1: 1.40e5
- firefly reporter light, replicate 2: 2.19e5
- Renilla control light, replicate 1: 1.83e6
- Renilla control light, replicate 2: 2.10e6

CG14989 [DRSC08448]
- firefly reporter light, replicate 1: 9.93e5
- firefly reporter light, replicate 2: 4.89e5
- Renilla control light, replicate 1: 1.47e6
- Renilla control light, replicate 2: 1.35e6

CG14989 [DRSC25585]
- firefly reporter light, replicate 1: 5.26e5
- firefly reporter light, replicate 2: 6.35e5
- Renilla control light, replicate 1: 7.96e5
- Renilla control light, replicate 2: 6.71e5

CG8112 [DRSC16377]
- firefly reporter light, replicate 1: 1.57e5
- firefly reporter light, replicate 2: 1.33e5
- Renilla control light, replicate 1: 3.10e6
- Renilla control light, replicate 2: 2.04e6

CG10165 [DRSC02017]
- firefly reporter light, replicate 1: 1.16e6
- firefly reporter light, replicate 2: 1.10e6
- Renilla control light, replicate 1: 1.79e6
- Renilla control light, replicate 2: 1.75e6

Vinc [DRSC18728]
- firefly reporter light, replicate 1: 86989
- firefly reporter light, replicate 2: 59903
- Renilla control light, replicate 1: 5.07e5
- Renilla control light, replicate 2: 4.07e5

CG18130 [DRSC19790]
- firefly reporter light, replicate 1: 7.30e5
- firefly reporter light, replicate 2: 6.42e5
- Renilla control light, replicate 1: 3.03e6
- Renilla control light, replicate 2: 2.98e6

CG18130 [DRSC24767]
- firefly reporter light, replicate 1: 7.39e5
- firefly reporter light, replicate 2: 5.51e5
- Renilla control light, replicate 1: 8.54e5
- Renilla control light, replicate 2: 7.33e5

Targets listed so far whose target name starts with D or d:
DCX-EMAP [DRSC10012]
- firefly reporter light, replicate 1: 2.27e5
- firefly reporter light, replicate 2: 1.27e5
- Renilla control light, replicate 1: 1.82e6
- Renilla control light, replicate 2: 1.04e6

DCX-EMAP [DRSC10013]
- firefly reporter light, replicate 1: 1.02e5
- firefly reporter light, replicate 2: 1.10e5
- Renilla control light, replicate 1: 5.19e5
- Renilla control light, replicate 2: 4.00e5

DCX-EMAP [DRSC23492]
- firefly reporter light, replicate 1: 1.71e6
- firefly reporter light, replicate 2: 1.26e6
- Renilla control light, replicate 1: 1.20e6
- Renilla control light, replicate 2: 1.10e6
